Read-outs that look alike come from different tables or passages of the source. No constants are given. Whether binding was seen depends on the method and setting. Binding seen in cells or lysates may run through a third protein. Some results given as binding are weak or reduced against the parent protein; the word gives no strength. For some of these results: Sequences can lack the tags named with a protein.

Protein sequences, listed by entry. Tags and fused reporters are not part of them.
UniProt Q13200: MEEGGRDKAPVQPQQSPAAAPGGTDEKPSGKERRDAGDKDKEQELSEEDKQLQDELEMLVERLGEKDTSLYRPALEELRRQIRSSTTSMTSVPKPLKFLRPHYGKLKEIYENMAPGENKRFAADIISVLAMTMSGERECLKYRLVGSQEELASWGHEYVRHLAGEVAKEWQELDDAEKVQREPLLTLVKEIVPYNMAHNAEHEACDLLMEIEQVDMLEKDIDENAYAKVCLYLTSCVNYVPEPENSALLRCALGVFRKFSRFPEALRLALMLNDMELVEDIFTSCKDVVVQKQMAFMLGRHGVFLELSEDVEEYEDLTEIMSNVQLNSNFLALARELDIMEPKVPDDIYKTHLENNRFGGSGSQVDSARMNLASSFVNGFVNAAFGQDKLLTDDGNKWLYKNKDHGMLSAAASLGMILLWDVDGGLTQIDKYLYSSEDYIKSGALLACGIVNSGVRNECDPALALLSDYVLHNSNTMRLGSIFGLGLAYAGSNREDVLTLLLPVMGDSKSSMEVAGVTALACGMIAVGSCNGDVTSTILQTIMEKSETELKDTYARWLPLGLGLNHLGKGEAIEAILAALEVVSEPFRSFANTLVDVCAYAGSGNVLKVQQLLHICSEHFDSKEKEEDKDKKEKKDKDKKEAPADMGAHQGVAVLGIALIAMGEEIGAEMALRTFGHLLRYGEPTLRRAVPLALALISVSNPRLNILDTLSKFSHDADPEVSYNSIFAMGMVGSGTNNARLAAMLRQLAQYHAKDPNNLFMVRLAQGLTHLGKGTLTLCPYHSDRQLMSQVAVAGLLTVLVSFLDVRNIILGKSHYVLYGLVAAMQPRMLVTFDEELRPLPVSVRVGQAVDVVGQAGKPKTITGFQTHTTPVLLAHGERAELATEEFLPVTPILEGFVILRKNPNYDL
UniProt O00232: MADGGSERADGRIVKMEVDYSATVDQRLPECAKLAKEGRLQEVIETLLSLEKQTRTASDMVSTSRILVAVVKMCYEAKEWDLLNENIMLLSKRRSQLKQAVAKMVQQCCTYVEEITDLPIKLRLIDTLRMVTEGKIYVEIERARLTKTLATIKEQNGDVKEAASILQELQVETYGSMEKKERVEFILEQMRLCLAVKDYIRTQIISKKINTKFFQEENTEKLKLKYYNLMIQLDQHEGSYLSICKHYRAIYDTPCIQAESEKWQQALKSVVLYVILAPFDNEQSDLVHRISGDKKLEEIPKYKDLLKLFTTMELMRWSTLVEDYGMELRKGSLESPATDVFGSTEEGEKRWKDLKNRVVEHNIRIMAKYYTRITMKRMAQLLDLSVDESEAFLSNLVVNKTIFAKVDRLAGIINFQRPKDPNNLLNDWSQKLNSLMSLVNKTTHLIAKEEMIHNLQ
UniProt Q16186: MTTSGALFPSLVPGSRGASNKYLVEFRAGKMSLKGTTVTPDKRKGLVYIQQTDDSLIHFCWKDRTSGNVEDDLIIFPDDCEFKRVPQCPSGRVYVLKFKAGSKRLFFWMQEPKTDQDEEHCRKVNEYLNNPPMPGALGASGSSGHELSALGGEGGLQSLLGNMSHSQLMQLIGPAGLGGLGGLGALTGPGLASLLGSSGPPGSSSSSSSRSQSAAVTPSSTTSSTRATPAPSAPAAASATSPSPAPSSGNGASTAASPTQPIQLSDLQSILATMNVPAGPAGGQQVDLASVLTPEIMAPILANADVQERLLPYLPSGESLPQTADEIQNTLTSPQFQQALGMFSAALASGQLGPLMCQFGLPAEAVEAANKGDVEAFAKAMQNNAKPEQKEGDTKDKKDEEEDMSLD
UniProt O00487: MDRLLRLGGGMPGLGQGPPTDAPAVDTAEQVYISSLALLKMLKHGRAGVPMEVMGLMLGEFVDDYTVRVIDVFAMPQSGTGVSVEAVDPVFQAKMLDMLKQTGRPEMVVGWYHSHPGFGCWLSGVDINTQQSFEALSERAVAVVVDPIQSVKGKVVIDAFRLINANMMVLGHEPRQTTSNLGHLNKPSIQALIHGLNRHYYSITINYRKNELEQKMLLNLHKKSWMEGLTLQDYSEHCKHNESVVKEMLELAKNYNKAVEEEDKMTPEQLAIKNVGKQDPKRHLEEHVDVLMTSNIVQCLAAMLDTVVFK
UniProt P62333: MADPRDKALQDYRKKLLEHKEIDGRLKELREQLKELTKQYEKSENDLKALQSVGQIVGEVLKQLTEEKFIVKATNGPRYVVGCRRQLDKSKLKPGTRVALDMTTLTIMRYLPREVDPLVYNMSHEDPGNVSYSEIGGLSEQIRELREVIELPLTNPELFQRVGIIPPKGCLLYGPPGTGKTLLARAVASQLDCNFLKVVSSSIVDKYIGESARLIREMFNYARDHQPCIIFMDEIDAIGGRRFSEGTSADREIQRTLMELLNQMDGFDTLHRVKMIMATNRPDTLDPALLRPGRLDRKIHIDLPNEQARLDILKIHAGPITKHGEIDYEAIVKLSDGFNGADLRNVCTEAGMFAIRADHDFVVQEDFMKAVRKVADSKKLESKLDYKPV
UniProt Q16401: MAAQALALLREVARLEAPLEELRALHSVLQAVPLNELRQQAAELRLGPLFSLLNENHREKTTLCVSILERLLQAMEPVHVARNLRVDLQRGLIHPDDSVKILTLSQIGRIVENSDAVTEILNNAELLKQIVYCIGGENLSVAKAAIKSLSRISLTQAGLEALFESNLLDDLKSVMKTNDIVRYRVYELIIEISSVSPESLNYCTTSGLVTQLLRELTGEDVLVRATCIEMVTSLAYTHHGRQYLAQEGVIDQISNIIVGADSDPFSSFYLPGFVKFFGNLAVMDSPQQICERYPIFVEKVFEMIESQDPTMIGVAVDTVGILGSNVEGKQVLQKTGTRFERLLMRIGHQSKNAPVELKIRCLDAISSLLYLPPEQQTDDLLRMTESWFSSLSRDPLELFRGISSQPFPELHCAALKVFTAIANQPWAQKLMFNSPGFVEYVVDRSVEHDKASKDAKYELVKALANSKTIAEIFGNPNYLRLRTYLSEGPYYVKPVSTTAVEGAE
UniProt Q16531: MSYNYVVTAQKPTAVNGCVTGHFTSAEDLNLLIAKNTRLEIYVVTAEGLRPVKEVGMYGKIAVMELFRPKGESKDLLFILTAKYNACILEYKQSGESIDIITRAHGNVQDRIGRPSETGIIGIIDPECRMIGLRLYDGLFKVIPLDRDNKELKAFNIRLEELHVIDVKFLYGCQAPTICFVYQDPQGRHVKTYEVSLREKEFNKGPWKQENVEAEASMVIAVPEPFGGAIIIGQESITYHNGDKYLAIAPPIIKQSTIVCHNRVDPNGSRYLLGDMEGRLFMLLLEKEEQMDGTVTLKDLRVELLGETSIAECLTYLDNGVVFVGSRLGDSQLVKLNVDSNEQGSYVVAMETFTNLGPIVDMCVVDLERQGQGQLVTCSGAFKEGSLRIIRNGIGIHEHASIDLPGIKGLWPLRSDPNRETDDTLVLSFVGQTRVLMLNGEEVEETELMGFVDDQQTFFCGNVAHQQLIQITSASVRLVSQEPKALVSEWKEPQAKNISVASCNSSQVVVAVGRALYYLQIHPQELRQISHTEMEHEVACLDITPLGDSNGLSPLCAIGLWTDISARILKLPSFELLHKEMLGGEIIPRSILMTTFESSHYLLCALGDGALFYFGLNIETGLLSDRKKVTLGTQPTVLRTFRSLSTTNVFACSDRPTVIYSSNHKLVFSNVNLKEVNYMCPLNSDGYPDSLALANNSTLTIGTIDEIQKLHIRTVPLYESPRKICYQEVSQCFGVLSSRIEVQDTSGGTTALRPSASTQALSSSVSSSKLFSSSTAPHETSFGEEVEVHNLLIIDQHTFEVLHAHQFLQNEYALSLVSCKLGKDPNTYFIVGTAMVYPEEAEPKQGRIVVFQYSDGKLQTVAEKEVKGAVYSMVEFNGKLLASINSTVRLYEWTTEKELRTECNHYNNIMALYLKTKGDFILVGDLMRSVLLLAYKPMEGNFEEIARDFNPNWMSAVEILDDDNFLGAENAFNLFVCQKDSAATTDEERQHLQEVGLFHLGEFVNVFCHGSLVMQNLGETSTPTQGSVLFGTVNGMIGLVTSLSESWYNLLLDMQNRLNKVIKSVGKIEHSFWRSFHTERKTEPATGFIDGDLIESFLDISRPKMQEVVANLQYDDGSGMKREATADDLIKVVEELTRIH

Drawing on paper doi:10.1101/2022.07.21.500952, this text covers binding for four molecules.

The target of one assay is T1, His-WDR70 (112-654 aa) (UniProt Q9NW82).
T1 sequence: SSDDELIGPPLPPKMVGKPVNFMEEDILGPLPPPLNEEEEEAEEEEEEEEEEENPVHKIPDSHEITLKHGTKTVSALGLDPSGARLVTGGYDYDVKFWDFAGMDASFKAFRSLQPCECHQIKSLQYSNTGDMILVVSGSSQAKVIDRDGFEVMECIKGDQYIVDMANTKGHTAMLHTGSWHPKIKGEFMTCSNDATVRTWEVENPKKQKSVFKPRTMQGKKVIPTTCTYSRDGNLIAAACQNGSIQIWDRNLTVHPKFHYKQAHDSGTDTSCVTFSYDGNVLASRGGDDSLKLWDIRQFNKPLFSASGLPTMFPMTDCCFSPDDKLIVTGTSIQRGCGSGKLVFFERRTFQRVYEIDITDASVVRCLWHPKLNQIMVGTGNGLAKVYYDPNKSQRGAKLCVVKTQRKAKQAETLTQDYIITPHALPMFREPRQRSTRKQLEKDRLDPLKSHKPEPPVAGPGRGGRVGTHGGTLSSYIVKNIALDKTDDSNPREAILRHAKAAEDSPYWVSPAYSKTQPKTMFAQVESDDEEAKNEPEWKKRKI
Put plainly: pull-down.

The target of assay [1] is Flag-tagged PSMD2^Rpn1 (UniProt Q13200). Put plainly: co-IP.
A further assay concerns the target Flag-PSMD12^Rpn5 (UniProt O00232). Put plainly: co-IP.
For the next assay, the target named is Flag-ADRM1^Rpn13 (human) (UniProt Q16186). Put plainly: co-IP.
For a further assay, the target named is Flag-POH1^Rpn11 (UniProt O00487). Put plainly: co-IP.
The next assay has as its target Flag-PSMC6^Rpt4 (UniProt P62333). The assay is described as follows: co-IP.
Assay [2] addresses Flag-tagged PSMD2^Rpn1 (UniProt Q13200). Put plainly: co-IP. This is another data set of the same source.

“PSMD5^Hsm3 (endogenous, HEK293T nuclear extract) (from UniProt Q16401 1-504)”: in the assay with His-WDR70 (112-654 aa), the binding result is “binds”. Regarding “DDB1 (endogenous, L02 and T43 cells) (from UniProt Q16531 1-1140)”, in the assay with Flag-tagged PSMD2^Rpn1 [1], the binding result is listed as “binds”.

B1: WDR70 (endogenous, HEK293T) (protein, UniProt Q9NW82 1-654)
chain: MERSGPSEVTGSDASGPDPQLAVTMGFTGFGKKARTFDLEAMFEQTRRTAVERSRKTLEAREKEEEMNREKELRRQNEDIEPTSSRSNVVRDCSKSSSRDTSSSESEQSSDSSDDELIGPPLPPKMVGKPVNFMEEDILGPLPPPLNEEEEEAEEEEEEEEEEENPVHKIPDSHEITLKHGTKTVSALGLDPSGARLVTGGYDYDVKFWDFAGMDASFKAFRSLQPCECHQIKSLQYSNTGDMILVVSGSSQAKVIDRDGFEVMECIKGDQYIVDMANTKGHTAMLHTGSWHPKIKGEFMTCSNDATVRTWEVENPKKQKSVFKPRTMQGKKVIPTTCTYSRDGNLIAAACQNGSIQIWDRNLTVHPKFHYKQAHDSGTDTSCVTFSYDGNVLASRGGDDSLKLWDIRQFNKPLFSASGLPTMFPMTDCCFSPDDKLIVTGTSIQRGCGSGKLVFFERRTFQRVYEIDITDASVVRCLWHPKLNQIMVGTGNGLAKVYYDPNKSQRGAKLCVVKTQRKAKQAETLTQDYIITPHALPMFREPRQRSTRKQLEKDRLDPLKSHKPEPPVAGPGRGGRVGTHGGTLSSYIVKNIALDKTDDSNPREAILRHAKAAEDSPYWVSPAYSKTQPKTMFAQVESDDEEAKNEPEWKKRKI
Turning to B1, the binding result with Flag-PSMD12^Rpn5, in the assay with Flag-ADRM1^Rpn13 (human), with Flag-POH1^Rpn11 and with Flag-PSMC6^Rpt4 was “binds” in each case.

B2: WDR70 (endogenous, L02 and T43 cells) (protein, UniProt Q9NW82 1-654)
chain: MERSGPSEVTGSDASGPDPQLAVTMGFTGFGKKARTFDLEAMFEQTRRTAVERSRKTLEAREKEEEMNREKELRRQNEDIEPTSSRSNVVRDCSKSSSRDTSSSESEQSSDSSDDELIGPPLPPKMVGKPVNFMEEDILGPLPPPLNEEEEEAEEEEEEEEEEENPVHKIPDSHEITLKHGTKTVSALGLDPSGARLVTGGYDYDVKFWDFAGMDASFKAFRSLQPCECHQIKSLQYSNTGDMILVVSGSSQAKVIDRDGFEVMECIKGDQYIVDMANTKGHTAMLHTGSWHPKIKGEFMTCSNDATVRTWEVENPKKQKSVFKPRTMQGKKVIPTTCTYSRDGNLIAAACQNGSIQIWDRNLTVHPKFHYKQAHDSGTDTSCVTFSYDGNVLASRGGDDSLKLWDIRQFNKPLFSASGLPTMFPMTDCCFSPDDKLIVTGTSIQRGCGSGKLVFFERRTFQRVYEIDITDASVVRCLWHPKLNQIMVGTGNGLAKVYYDPNKSQRGAKLCVVKTQRKAKQAETLTQDYIITPHALPMFREPRQRSTRKQLEKDRLDPLKSHKPEPPVAGPGRGGRVGTHGGTLSSYIVKNIALDKTDDSNPREAILRHAKAAEDSPYWVSPAYSKTQPKTMFAQVESDDEEAKNEPEWKKRKI
With B2, the binding result with Flag-tagged PSMD2^Rpn1 [2] is given as “binds”.
